Reference: the supplement of paper PMC12823440, “Inhibitors supercharge kinase turnover through native proteolytic circuits” (Nature, 2025)
The other results are listed elsewhere or left out. Hit calls seldom repeat between salt and free forms of one compound.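 Kinases, fused to nanoluciferase, were expressed in K562 cells; luminescence was measured every 4 h from 2 to 18 h as percent of control (DMSO = 100%, positive control = 0%). A time point is decreased if signal falls significantly (2 sigma). Hits were called by the authors by a rule that is not shown; the count of time points alone does not decide it.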

Chains of the proteins cited; added tags and fusions are not shown. Lines headed by an entry give the natural chain unless they say otherwise; changes in a name come on top.
UniProt Q15208: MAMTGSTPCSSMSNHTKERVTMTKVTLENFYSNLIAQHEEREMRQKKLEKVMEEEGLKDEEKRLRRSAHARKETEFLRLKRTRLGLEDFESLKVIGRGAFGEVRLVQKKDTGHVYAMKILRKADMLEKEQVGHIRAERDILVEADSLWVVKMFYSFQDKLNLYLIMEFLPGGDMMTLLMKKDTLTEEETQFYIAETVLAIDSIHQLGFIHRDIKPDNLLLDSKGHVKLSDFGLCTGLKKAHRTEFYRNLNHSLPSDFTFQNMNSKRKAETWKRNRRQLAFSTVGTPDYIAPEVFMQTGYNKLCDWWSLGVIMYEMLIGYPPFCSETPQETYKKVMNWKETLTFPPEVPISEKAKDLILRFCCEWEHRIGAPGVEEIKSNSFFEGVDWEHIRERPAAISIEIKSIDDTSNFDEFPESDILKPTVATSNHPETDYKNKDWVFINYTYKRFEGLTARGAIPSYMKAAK
UniProt Q6PHR2: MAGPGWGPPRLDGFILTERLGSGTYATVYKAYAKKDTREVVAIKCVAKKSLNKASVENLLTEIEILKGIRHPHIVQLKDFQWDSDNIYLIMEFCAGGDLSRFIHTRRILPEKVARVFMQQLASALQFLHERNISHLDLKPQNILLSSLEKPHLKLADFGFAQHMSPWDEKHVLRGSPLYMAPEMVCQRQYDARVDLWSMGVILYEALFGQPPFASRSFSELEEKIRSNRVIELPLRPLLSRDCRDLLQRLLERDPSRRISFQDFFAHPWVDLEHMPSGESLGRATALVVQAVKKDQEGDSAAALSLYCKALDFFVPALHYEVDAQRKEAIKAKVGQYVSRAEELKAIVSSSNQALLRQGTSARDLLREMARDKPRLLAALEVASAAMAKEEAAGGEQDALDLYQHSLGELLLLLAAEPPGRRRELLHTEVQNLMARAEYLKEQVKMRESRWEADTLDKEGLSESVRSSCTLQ
UniProt P07947, whole entry, looked up: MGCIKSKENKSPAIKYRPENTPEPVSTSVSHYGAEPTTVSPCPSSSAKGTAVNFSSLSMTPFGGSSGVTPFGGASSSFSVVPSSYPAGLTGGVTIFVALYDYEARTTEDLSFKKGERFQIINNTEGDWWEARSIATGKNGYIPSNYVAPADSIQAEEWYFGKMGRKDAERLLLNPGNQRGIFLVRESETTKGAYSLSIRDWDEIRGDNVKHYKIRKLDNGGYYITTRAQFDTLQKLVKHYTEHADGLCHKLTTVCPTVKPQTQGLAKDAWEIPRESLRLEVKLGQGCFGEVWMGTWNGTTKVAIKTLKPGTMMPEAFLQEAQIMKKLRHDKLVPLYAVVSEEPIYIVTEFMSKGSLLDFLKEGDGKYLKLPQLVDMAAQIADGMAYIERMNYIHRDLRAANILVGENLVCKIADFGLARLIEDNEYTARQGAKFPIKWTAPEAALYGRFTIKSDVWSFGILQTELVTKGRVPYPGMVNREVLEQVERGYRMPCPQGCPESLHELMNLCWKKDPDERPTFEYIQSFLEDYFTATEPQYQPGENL
UniProt P43403: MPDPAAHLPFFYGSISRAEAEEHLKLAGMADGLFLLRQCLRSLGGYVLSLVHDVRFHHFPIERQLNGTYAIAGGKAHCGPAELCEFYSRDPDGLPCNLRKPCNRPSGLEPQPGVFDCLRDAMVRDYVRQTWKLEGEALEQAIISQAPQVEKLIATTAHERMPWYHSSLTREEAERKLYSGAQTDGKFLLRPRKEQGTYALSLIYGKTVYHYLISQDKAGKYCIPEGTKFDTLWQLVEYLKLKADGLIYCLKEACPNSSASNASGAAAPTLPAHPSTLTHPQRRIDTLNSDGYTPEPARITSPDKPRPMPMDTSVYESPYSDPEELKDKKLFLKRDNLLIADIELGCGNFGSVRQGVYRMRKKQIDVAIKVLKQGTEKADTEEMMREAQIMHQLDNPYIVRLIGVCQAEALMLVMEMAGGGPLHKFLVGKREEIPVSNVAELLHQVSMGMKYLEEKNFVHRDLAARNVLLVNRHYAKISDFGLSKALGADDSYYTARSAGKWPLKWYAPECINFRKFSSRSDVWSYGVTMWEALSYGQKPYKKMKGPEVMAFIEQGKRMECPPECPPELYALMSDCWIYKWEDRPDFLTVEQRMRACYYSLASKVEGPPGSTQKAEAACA
UniProt P00519, whole entry: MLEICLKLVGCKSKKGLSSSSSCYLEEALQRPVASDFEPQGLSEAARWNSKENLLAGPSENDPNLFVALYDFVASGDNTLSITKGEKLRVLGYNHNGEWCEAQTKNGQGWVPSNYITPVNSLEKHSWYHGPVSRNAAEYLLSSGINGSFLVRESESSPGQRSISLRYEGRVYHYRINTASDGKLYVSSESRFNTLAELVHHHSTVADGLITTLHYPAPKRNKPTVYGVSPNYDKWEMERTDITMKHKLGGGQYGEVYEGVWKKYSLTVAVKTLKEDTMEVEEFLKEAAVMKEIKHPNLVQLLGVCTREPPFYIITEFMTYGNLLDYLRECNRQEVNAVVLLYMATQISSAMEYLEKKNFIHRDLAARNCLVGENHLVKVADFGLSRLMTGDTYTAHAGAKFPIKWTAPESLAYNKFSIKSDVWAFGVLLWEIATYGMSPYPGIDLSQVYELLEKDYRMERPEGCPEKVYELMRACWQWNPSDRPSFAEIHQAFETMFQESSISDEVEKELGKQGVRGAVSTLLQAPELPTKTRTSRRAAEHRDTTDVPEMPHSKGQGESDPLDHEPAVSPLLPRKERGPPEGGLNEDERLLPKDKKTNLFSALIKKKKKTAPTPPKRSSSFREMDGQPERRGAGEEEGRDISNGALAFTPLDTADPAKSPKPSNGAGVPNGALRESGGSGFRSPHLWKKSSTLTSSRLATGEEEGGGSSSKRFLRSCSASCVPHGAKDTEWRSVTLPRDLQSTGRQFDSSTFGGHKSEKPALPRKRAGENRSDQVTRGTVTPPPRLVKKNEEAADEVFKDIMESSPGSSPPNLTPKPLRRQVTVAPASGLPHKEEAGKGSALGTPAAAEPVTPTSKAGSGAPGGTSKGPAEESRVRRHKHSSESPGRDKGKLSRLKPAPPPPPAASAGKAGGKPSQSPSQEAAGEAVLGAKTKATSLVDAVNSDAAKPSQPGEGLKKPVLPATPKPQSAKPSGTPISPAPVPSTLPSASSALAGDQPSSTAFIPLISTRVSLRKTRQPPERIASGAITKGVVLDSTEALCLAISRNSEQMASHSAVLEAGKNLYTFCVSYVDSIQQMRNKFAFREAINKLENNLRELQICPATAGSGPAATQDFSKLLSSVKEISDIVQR
UniProt P31749: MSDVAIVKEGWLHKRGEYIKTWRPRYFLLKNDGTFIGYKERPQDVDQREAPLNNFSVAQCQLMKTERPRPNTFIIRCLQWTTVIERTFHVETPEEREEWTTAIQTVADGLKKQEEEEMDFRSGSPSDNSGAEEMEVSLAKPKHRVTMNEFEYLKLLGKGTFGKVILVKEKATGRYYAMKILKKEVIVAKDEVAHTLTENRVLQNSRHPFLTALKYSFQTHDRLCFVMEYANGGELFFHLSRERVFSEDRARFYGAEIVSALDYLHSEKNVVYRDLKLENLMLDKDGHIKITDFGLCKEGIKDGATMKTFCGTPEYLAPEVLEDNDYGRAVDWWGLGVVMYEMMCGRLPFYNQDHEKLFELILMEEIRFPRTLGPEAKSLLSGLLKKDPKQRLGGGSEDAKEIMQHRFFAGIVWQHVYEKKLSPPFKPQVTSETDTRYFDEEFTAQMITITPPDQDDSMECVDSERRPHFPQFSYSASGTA
UniProt P10398: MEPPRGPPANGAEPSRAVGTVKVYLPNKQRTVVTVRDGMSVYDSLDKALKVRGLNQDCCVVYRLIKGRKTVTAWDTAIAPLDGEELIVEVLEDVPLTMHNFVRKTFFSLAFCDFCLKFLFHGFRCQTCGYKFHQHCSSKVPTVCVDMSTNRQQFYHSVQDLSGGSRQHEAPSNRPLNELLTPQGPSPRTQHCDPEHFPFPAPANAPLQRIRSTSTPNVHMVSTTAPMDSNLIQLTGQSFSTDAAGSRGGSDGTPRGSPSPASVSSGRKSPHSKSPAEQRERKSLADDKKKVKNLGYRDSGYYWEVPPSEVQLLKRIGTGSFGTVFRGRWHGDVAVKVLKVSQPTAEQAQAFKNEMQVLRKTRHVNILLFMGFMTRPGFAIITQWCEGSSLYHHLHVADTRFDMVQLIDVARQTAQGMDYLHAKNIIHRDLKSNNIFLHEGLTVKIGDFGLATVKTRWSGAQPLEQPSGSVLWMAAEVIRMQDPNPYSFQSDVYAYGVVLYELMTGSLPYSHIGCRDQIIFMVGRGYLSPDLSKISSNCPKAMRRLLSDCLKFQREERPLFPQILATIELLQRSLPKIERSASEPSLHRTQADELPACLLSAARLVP
UniProt O14965: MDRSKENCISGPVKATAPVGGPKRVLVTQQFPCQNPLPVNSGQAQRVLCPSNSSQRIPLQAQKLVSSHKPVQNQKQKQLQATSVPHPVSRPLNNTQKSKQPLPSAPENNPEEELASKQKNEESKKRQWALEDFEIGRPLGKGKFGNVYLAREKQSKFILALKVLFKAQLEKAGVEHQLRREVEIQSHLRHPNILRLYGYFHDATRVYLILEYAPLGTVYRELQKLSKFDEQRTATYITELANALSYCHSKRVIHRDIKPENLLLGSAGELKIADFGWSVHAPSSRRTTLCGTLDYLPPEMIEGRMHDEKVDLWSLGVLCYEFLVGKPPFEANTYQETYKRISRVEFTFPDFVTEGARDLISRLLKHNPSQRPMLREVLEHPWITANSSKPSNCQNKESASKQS
UniProt Q96GD4, whole entry: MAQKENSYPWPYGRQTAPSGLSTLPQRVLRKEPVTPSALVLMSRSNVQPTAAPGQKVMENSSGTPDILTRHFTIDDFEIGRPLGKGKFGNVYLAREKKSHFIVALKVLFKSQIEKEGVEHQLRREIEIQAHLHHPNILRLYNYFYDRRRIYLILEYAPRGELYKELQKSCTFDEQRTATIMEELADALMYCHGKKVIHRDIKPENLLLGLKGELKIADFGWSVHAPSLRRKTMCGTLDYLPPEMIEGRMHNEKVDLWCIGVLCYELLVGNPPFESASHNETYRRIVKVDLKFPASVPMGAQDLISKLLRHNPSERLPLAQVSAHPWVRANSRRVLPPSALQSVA
UniProt Q9UQB9: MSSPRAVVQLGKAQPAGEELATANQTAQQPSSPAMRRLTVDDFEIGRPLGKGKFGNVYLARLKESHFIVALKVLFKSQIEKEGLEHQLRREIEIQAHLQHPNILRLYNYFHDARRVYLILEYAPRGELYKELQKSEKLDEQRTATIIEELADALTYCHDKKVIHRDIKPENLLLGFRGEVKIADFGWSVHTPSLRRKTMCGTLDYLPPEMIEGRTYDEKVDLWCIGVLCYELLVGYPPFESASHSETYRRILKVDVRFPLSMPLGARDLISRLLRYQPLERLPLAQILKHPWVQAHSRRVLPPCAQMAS
UniProt P51451: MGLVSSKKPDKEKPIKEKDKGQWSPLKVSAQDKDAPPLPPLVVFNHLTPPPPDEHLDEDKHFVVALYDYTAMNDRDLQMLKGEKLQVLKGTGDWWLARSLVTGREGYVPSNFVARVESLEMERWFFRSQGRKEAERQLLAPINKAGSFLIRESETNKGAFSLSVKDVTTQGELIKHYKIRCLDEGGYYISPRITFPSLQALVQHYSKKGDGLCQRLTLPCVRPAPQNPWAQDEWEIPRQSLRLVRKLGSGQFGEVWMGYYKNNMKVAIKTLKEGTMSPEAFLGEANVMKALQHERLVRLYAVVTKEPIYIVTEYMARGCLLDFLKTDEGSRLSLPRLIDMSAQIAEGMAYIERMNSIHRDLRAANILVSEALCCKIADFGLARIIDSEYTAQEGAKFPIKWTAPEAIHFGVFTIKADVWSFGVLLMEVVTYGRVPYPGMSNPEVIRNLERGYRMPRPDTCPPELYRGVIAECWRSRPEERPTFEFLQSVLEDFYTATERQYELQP
UniProt Q06187: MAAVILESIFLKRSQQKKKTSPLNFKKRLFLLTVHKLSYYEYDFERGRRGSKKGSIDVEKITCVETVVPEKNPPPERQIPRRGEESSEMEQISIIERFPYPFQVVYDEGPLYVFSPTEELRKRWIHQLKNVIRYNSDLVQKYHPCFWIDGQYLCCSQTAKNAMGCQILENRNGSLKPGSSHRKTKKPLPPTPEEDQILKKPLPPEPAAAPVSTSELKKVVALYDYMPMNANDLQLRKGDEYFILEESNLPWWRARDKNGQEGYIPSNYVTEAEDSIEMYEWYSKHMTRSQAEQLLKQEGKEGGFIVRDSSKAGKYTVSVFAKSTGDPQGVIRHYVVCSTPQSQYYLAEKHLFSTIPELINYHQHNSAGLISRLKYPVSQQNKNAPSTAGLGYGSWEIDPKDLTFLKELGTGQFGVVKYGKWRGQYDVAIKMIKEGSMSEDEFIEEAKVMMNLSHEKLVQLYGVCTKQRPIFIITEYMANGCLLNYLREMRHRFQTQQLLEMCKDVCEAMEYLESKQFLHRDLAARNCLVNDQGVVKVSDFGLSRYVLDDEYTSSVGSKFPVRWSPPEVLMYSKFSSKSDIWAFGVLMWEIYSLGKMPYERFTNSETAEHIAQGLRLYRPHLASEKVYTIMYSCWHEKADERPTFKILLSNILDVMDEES

What was measured:
Settings in all cases: K562; 2-18 h
STK38 = STK38 (UniProt Q15208); assay: kinase-Nluc reporter destabilization hit call (1 = scored as downregulated) (binary); higher = compound decreases kinase abundance
SYK = SYK (UniProt P43405); assay: as above
TEC = TEC (UniProt P42680); assay: as above
TYK2 = TYK2 (UniProt P29597); assay: as above
ULK3 = ULK3 (UniProt Q6PHR2); assay: as above
YES1 = YES1 (UniProt P07947); assay: as above
ZAK = ZAK (UniProt Q9NYL2); assay: as above
ZAP70 = ZAP70 (UniProt P43403); assay: as above
ABL1 = ABL1 (UniProt P00519); assay: number of time points (of 5) at which kinase-Nluc abundance scored as decreased, DMSO-normalised (count); higher = more persistent destabilization
AKT1 = AKT1 (UniProt P31749); assay: as above
ALK = ALK (UniProt Q9UM73); assay: as above
ARAF = ARAF (UniProt P10398); assay: as above
AURKA = AURKA (UniProt O14965); assay: as above
AURKB = AURKB (UniProt Q96GD4); assay: as above
AURKC = AURKC (UniProt Q9UQB9); assay: as above
BLK = BLK (UniProt P51451); assay: as above
BMX = BMX (UniProt P51813); assay: as above
BRAF = BRAF (UniProt P15056); assay: as above
BRAF_V600E = assay: as above
BTK = BTK (UniProt Q06187); assay: as above

CN(C)CCSSCCNC(=O)C1CCN(C(=O)CSc2ccc(Cl)cc2)CC1 (10 µM)
kinase-Nluc reporter destabilization hit call (STK38): inactive: 0
kinase-Nluc reporter destabilization hit call (SYK): inactive: 0
kinase-Nluc reporter destabilization hit call (TEC): inactive: 0
kinase-Nluc reporter destabilization hit call (TYK2): inactive: 0
kinase-Nluc reporter destabilization hit call (ULK3): inactive: 0
kinase-Nluc reporter destabilization hit call (YES1): inactive: 0
kinase-Nluc reporter destabilization hit call (ZAK): inactive: 0
kinase-Nluc reporter destabilization hit call (ZAP70): inactive: 0
number of time points (ABL1): 0
number of time points (AKT1): 0
number of time points (ALK): 0
number of time points (ARAF): 0
number of time points (AURKA): 0
number of time points (AURKB): 0
number of time points (AURKC): 0
number of time points (BLK): 0
number of time points (BMX): 0
number of time points (BRAF): 0
number of time points (BRAF_V600E): 0
number of time points (BTK): 0

Cn1cnc(Cn2ccc3ccc(CNCc4[nH]c5ccccc5c4[C@H]4NC(=O)c5ccc(O)cc54)cc32)c1 (10 µM)
kinase-Nluc reporter destabilization hit call (STK38): inactive: 0
kinase-Nluc reporter destabilization hit call (SYK): inactive: 0
kinase-Nluc reporter destabilization hit call (TEC): inactive: 0
kinase-Nluc reporter destabilization hit call (TYK2): inactive: 0
kinase-Nluc reporter destabilization hit call (ULK3): inactive: 0
kinase-Nluc reporter destabilization hit call (YES1): inactive: 0
kinase-Nluc reporter destabilization hit call (ZAK): inactive: 0
kinase-Nluc reporter destabilization hit call (ZAP70): inactive: 0
number of time points (ABL1): 0
number of time points (AKT1): 0
number of time points (ALK): 0
number of time points (ARAF): 0
number of time points (AURKA): 0
number of time points (AURKB): 0
number of time points (AURKC): 0
number of time points (BLK): 0
number of time points (BMX): 0
number of time points (BRAF): 0
number of time points (BRAF_V600E): 0
number of time points (BTK): 0

Cc1c(NC(=O)c2cccn(-c3ccc(F)cc3)c2=O)ccc(Oc2ccnc(NC(=O)C3CC3)c2)c1C (2 µM)
kinase-Nluc reporter destabilization hit call (STK38): inactive: 0
kinase-Nluc reporter destabilization hit call (SYK): inactive: 0
kinase-Nluc reporter destabilization hit call (TEC): inactive: 0
kinase-Nluc reporter destabilization hit call (TYK2): inactive: 0
kinase-Nluc reporter destabilization hit call (ULK3): inactive: 0
kinase-Nluc reporter destabilization hit call (YES1): inactive: 0
kinase-Nluc reporter destabilization hit call (ZAK): inactive: 0
kinase-Nluc reporter destabilization hit call (ZAP70): inactive: 0
number of time points (ABL1): 1
number of time points (AKT1): 0
number of time points (ALK): 1
number of time points (ARAF): 0
number of time points (AURKA): 0
number of time points (AURKB): 0
number of time points (AURKC): 0
number of time points (BLK): 0
number of time points (BMX): 1
number of time points (BRAF): 0
number of time points (BRAF_V600E): 0
number of time points (BTK): 0

Oc1ccc(Nc2nc(-c3ccc(Cl)cc3)cs2)cc1 (10 µM)
kinase-Nluc reporter destabilization hit call (STK38): inactive: 0
kinase-Nluc reporter destabilization hit call (SYK): inactive: 0
kinase-Nluc reporter destabilization hit call (TEC): inactive: 0
kinase-Nluc reporter destabilization hit call (TYK2): inactive: 0
kinase-Nluc reporter destabilization hit call (ULK3): inactive: 0
kinase-Nluc reporter destabilization hit call (YES1): inactive: 0
kinase-Nluc reporter destabilization hit call (ZAK): inactive: 0
kinase-Nluc reporter destabilization hit call (ZAP70): inactive: 0
number of time points (ABL1): 0
number of time points (AKT1): 0
number of time points (ALK): 0
number of time points (ARAF): 0
number of time points (AURKA): 0
number of time points (AURKB): 0
number of time points (AURKC): 0
number of time points (BLK): 0
number of time points (BMX): 0
number of time points (BRAF): 0
number of time points (BRAF_V600E): 0
number of time points (BTK): 0

C=CC(=O)Nc1cc(Nc2ncc(Cl)c(-c3c[nH]c4ccccc34)n2)c(OC)cc1N(C)CCN(C)C [Mutant EGFR inhibitor] (2.5 µM)
kinase-Nluc reporter destabilization hit call (STK38): inactive: 0
kinase-Nluc reporter destabilization hit call (SYK): inactive: 0
kinase-Nluc reporter destabilization hit call (TEC): inactive: 0
kinase-Nluc reporter destabilization hit call (TYK2): inactive: 0
kinase-Nluc reporter destabilization hit call (ULK3): inactive: 0
kinase-Nluc reporter destabilization hit call (YES1): inactive: 0
kinase-Nluc reporter destabilization hit call (ZAK): inactive: 0
kinase-Nluc reporter destabilization hit call (ZAP70): inactive: 0
number of time points (ABL1): 2
number of time points (AKT1): 0
number of time points (ALK): 0
number of time points (ARAF): 0
number of time points (AURKA): 2
number of time points (AURKB): 0
number of time points (AURKC): 0
number of time points (BLK): 4
number of time points (BMX): 0
number of time points (BRAF): 0
number of time points (BRAF_V600E): 2
number of time points (BTK): 0

C[C@H](c1ccnc(Nc2nc3ccc(-c4cc(N(C)C)ncn4)cc3[nH]2)c1)N1CCN(C(=O)CC(F)(F)F)CC1 (2.5 µM)
kinase-Nluc reporter destabilization hit call (STK38): inactive: 0
kinase-Nluc reporter destabilization hit call (SYK): inactive: 0
kinase-Nluc reporter destabilization hit call (TEC): inactive: 0
kinase-Nluc reporter destabilization hit call (TYK2): inactive: 0
kinase-Nluc reporter destabilization hit call (ULK3): inactive: 0
kinase-Nluc reporter destabilization hit call (YES1): inactive: 0
kinase-Nluc reporter destabilization hit call (ZAK): inactive: 0
kinase-Nluc reporter destabilization hit call (ZAP70): inactive: 0
number of time points (ABL1): 0
number of time points (AKT1): 0
number of time points (ALK): 0
number of time points (ARAF): 0
number of time points (AURKA): 0
number of time points (AURKB): 0
number of time points (AURKC): 0
number of time points (BLK): 0
number of time points (BMX): 0
number of time points (BRAF): 0
number of time points (BRAF_V600E): 0
number of time points (BTK): 0

C=CC(=O)Nc1cccc(Nc2nc(Nc3ccc(NC4CN(CCF)C4)cc3OC)ncc2C(F)(F)F)c1 (2.5 µM)
kinase-Nluc reporter destabilization hit call (STK38): inactive: 0
kinase-Nluc reporter destabilization hit call (SYK): inactive: 0
kinase-Nluc reporter destabilization hit call (TEC): inactive: 0
kinase-Nluc reporter destabilization hit call (TYK2): inactive: 0
kinase-Nluc reporter destabilization hit call (ULK3): inactive: 0
kinase-Nluc reporter destabilization hit call (YES1): inactive: 0
kinase-Nluc reporter destabilization hit call (ZAK): inactive: 0
kinase-Nluc reporter destabilization hit call (ZAP70): inactive: 0
number of time points (ABL1): 0
number of time points (AKT1): 0
number of time points (ALK): 0
number of time points (ARAF): 0
number of time points (AURKA): 0
number of time points (AURKB): 0
number of time points (AURKC): 0
number of time points (BLK): 0
number of time points (BMX): 0
number of time points (BRAF): 0
number of time points (BRAF_V600E): 0
number of time points (BTK): 0

C=C(CC[C@@H](C(=O)O)[C@H]1[C@H](O)C[C@@]2(C)C3=C(CC[C@]12C)[C@@]1(C)CC[C@H](OC(C)=O)C(C)(C)[C@@H]1CC3)C(C)C [Pachymic acid] (10 µM)
kinase-Nluc reporter destabilization hit call (STK38): inactive: 0
kinase-Nluc reporter destabilization hit call (SYK): inactive: 0
kinase-Nluc reporter destabilization hit call (TEC): inactive: 0
kinase-Nluc reporter destabilization hit call (TYK2): inactive: 0
kinase-Nluc reporter destabilization hit call (ULK3): inactive: 0
kinase-Nluc reporter destabilization hit call (YES1): inactive: 0
kinase-Nluc reporter destabilization hit call (ZAK): inactive: 0
kinase-Nluc reporter destabilization hit call (ZAP70): inactive: 0
number of time points (ABL1): 0
number of time points (AKT1): 0
number of time points (ALK): 0
number of time points (ARAF): 0
number of time points (AURKA): 0
number of time points (AURKB): 0
number of time points (AURKC): 0
number of time points (BLK): 0
number of time points (BMX): 0
number of time points (BRAF): 0
number of time points (BRAF_V600E): 0
number of time points (BTK): 0

Cc1ccc(CNc2ncnc3ccc(-c4ccc(CO)o4)cc23)o1 (10 µM)
kinase-Nluc reporter destabilization hit call (STK38): inactive: 0
kinase-Nluc reporter destabilization hit call (SYK): inactive: 0
kinase-Nluc reporter destabilization hit call (TEC): inactive: 0
kinase-Nluc reporter destabilization hit call (TYK2): inactive: 0
kinase-Nluc reporter destabilization hit call (ULK3): inactive: 0
kinase-Nluc reporter destabilization hit call (YES1): inactive: 0
kinase-Nluc reporter destabilization hit call (ZAK): inactive: 0
kinase-Nluc reporter destabilization hit call (ZAP70): inactive: 0
number of time points (ABL1): 0
number of time points (AKT1): 0
number of time points (ALK): 0
number of time points (ARAF): 0
number of time points (AURKA): 0
number of time points (AURKB): 0
number of time points (AURKC): 0
number of time points (BLK): 0
number of time points (BMX): 0
number of time points (BRAF): 0
number of time points (BRAF_V600E): 0
number of time points (BTK): 0

S=C(SSC(=S)N1CCOCC1)N1CCOCC1 (10 µM)
kinase-Nluc reporter destabilization hit call (STK38): inactive: 0
kinase-Nluc reporter destabilization hit call (SYK): inactive: 0
kinase-Nluc reporter destabilization hit call (TEC): inactive: 0
kinase-Nluc reporter destabilization hit call (TYK2): inactive: 0
kinase-Nluc reporter destabilization hit call (ULK3): active: 1
kinase-Nluc reporter destabilization hit call (YES1): inactive: 0
kinase-Nluc reporter destabilization hit call (ZAK): inactive: 0
kinase-Nluc reporter destabilization hit call (ZAP70): inactive: 0
number of time points (ABL1): 3
number of time points (AKT1): 0
number of time points (ALK): 0
number of time points (ARAF): 0
number of time points (AURKA): 3
number of time points (AURKB): 3
number of time points (AURKC): 0
number of time points (BLK): 3
number of time points (BMX): 0
number of time points (BRAF): 0
number of time points (BRAF_V600E): 3
number of time points (BTK): 0
